Experimental data reported in patent US12251411B2, “Methods of treating endometrial cancer using hemp extract” (Ecofibre USA Inc., priority 2021, dated 2025).
At least one compound was matched to its structure with a doubt left.

Tests used:
[1] = system: endometrial cancer; test: Case of a patient with stage IV chemoresistant metastatic endometrial cancer (PET/CT follow up); settings: before cannabis extract treatment
Description: Soon after the experiments detailed above a person came to us. They were diagnosed with endometrial cancer after presenting with significant pain and discomfort. They had already undergone a total hysterectomy and bilateral salpingo-oophorectomy followed by five rounds of chemotherapy. Each of the first five rounds of chemotherapy was a combined chemotherapy with Paclitaxil/Carboplatin.
See, Tables 3 and 4, below. […] As such, […] began standard protocol GemCap treatment in combination with a regime of 30 mg of BSHE twice daily via oral mucosal delivery and 75 mg of FSHE once daily via intravaginal delivery.

[2] = system: patient derived organoids; test: Calculated IC50 of various agents on organoids derived from the chemoresistant patient (PD3D cell culture); format: cell-based, human; settings: organoids of the chemoresistant stage IV patient
Description: The IC50 values were calculated from such tests. This value indicates the dosage at which 50% of the organoids were killed due to treatment.

SMILES	outcome of the patient's earlier treatment [1]	Calculated IC50 PD3D Cell Culture [2]
CCN1CCN(Cc2ccc(Nc3ncc(F)c(-c4cc(F)c5nc(C)n(C(C)C)c5c4)n3)nc2)CC1 [Abemaciclib]	failed	
Cc1ccc(C(=O)Nc2ccc(CN3CCN(C)CC3)c(C(F)(F)F)c2)cc1C#Cc1cnc2cccnn12 [Ponatinib]		Not Reached
